# The list does not hold the whole screen: it gathers tests that were run many times, whatever their T/C, doses with no T/C, and many T/C values between a quarter and a half above the control. Further doses and runs are listed elsewhere. T/C: endpoint of the treated group in % of that of the vehicle group. Some entries give survivors of the animals treated and no T/C: the source holds a T/C of zero for them, seemingly a mark for toxic or unscored doses. Some survivor counts are full or nearly so, which does not show that the dose was tolerated: the source hardly ever lists a survival T/C far under the control, and the zero likely stands for such cases as well. Counts of survivors are from the toxicity check (mostly the fifth day) where no day follows; animals may have died later. Schedule codes are those of the source, taken here to give the interval after Q, in days (D) or hours (H), and the number of doses after X. Some schedule codes hold Z or #, which are not explained here. Where survival is the endpoint, the PubChem record calls one and a half times the control and up active, and a quarter to a half above the control has no call in these data; cut-offs in other NCI protocols can differ. Some T/C values carry the count of animals alive at the toxicity check (mostly the fifth day); where none is given, no animal had died by that day. Some entries hold several experiments; the values are given in rising order.
# System: L1210 leukemia ip in BDF1 mice, survival T/C
# Test: NCI In Vivo Anticancer Drug Screen. Data for tumor model L1210 Leukemia (intraperitoneal) in B6D2F1 (BDF1) mice
# Details: T/C endpoint: mean survival time, higher T/C = longer survival
# [1] = dose: 200.0 mg/kg/injection, schedule: Q01DX009 (ip), vehicle: Klucel (hydroxypropylcellulose) (HPC)
# [2] = dose: 400.0 mg/kg/injection, schedule: Q04DX003 (ip), vehicle: Klucel (hydroxypropylcellulose) (HPC)
# [3] = dose: 400.0 mg/kg/injection, schedule: Q01DX009 (ip), vehicle: saline with Tween-80
# [4] = dose: 200.0 mg/kg/injection, schedule: Q04DX003 (ip), vehicle: saline with Tween-80
# [5] = dose: 400.0 mg/kg/injection, schedule: Q04DX003 (ip), vehicle: saline with Tween-80
# [6] = dose: 150.0 mg/kg/injection, schedule: Q01DX001 (ip), vehicle: saline
# [7] = dose: 300.0 mg/kg/injection, schedule: Q01DX001 (ip), vehicle: saline
# [8] = dose: 100.0 mg/kg/injection, schedule: Q01DX009 (ip), vehicle: saline with Tween-80
# [9] = dose: 400.0 mg/kg/injection, schedule: Q04DX002 (ip), vehicle: saline
# [10] = dose: 100.0 mg/kg/injection, schedule: Q04DX003 (ip), vehicle: saline with Tween-80
# [11] = dose: 200.0 mg/kg/injection, schedule: Q04DX003 (ip), vehicle: Klucel (hydroxypropylcellulose) (HPC)
# [12] = dose: 400.0 mg/kg/injection, schedule: Q01DX001 (ip), vehicle: carboxymethylcellulose (CMC)
# [13] = dose: 200.0 mg/kg/injection, schedule: Q01DX009 (ip), vehicle: saline with Tween-80
# [14] = dose: 400.0 mg/kg/injection, schedule: Q01DX009 (ip), vehicle: Klucel (hydroxypropylcellulose) (HPC)
structure (smiles),measurement,setting,value
CCCC(OC(C)=O)C(Cl)(Cl)Cl (configuration not stated),survivor count,[1],5 of 6
same,survivor count,[2],1 of 6
CCC1(CC)COC(C)(C(=O)O)OC1,survivor count,[3],0 of 6
CCOC(=O)COc1ccc(N=NN(C)c2ccccc2)cc1,survivor count,"dose: 375.0 mg/kg/injection, schedule: Q01DX Z (ip), vehicle: carboxymethylcellulose (CMC)",1 of 6
CN(C)Cc1cc(C(C)(C)C)c(O)c(C(C)(C)C)c1,survivor count,[4],2 of 6
same,survivor count,[5],0 of 6
Brc1ccccn1,survivor count,[6],3 of 6
same,survivor count,[7],0 of 6
CCCCCCCc1nc(/N=N/N(C)C)c(C(N)=O)[nH]1,T/C,[8],130 % of control
same,survivor count,[3],0 of 6
CCOC(=O)C[n+]1ccccc1/C=C/c1ccc(O)cc1,survivor count,"dose: 18.75 mg/kg/injection, schedule: Q01DX001 (ip), vehicle: other",0 of 6
same,survivor count,"dose: 37.5 mg/kg/injection, schedule: Q01DX001 (ip), vehicle: other",0 of 6
OC1CCN(c2c3ccccc3nc3ccccc23)CC1,survivor count,"dose: 100.0 mg/kg/injection, schedule: Q04DX002 (ip), vehicle: saline",0 of 3
same,survivor count,"dose: 200.0 mg/kg/injection, schedule: Q04DX002 (ip), vehicle: saline",0 of 3
same,survivor count,[9],0 of 3
CC(C)CC(CO)Cc1nc2ccccc2[nH]1 (configuration not stated),survivor count,"dose: 100.0 mg/kg/injection, schedule: Q04DX002 (ip), vehicle: Klucel (hydroxypropylcellulose) (HPC)",3 of 3
same,survivor count,"dose: 400.0 mg/kg/injection, schedule: Q04DX002 (ip), vehicle: other",0 of 6
same,survivor count,"dose: 400.0 mg/kg/injection, schedule: Q04DX003 (ip), vehicle: other",2 of 6
O=CC(=O)c1ccc(O)cc1,survivor count,"dose: 200.0 mg/kg/injection, schedule: Q01DX009 (ip), vehicle: saline sonified",3 of 6
CCCCCCCCCCCCN1CCSCC1,T/C,[10],"90, 97, 98 [5 of 6 alive], 126 % of control"
NC(=O)N1Cc2ccccc2CCc2ccccc2C1,survivor count,[11],6 of 6
Cc1cc(C(=O)Nc2ccc(NC3=NCCN3)cc2)cc(C(=O)Nc2ccc(NC3=NCCN3)cc2)c1,survivor count,"dose: 24.0 mg/kg/injection, schedule: Q01DX Z (ip), vehicle: saline",0 of 6
same,survivor count,"dose: 30.0 mg/kg/injection, schedule: Q01DX Z (ip), vehicle: saline",0 of 6
same,survivor count,"dose: 60.0 mg/kg/injection, schedule: Q01DX Z (ip), vehicle: saline",0 of 6
same,survivor count,"dose: 120.0 mg/kg/injection, schedule: Q01DX Z (ip), vehicle: saline",0 of 6
O=C(CC(O)C(Cl)(Cl)Cl)CC(O)C(Cl)(Cl)Cl (configuration not stated),survivor count,[9],1 of 3
O=C(O)/C=C/S(=O)(=O)c1ccc(Cl)cc1,survivor count,"dose: 100.0 mg/kg/injection, schedule: Q01DX009 (ip), vehicle: Klucel (hydroxypropylcellulose) (HPC)",0 of 3
same,survivor count,"dose: 200.0 mg/kg/injection, schedule: Q04DX002 (ip), vehicle: Klucel (hydroxypropylcellulose) (HPC)",1 of 3
same,survivor count,"dose: 400.0 mg/kg/injection, schedule: Q04DX002 (ip), vehicle: Klucel (hydroxypropylcellulose) (HPC)",0 of 3
C=CC[P+](CCCC)(CCCC)CCCC,survivor count,"dose: 25.0 mg/kg/injection, schedule: Q04DX003 (ip), vehicle: saline with Tween-80",0 of 6
same,survivor count,"dose: 25.0 mg/kg/injection, schedule: Q04DX003 (ip), vehicle: saline",0 of 6
same,survivor count,"dose: 50.0 mg/kg/injection, schedule: Q04DX003 (ip), vehicle: saline with Tween-80",0 of 6
same,survivor count,[10],0 of 6
same,survivor count,[4],0 of 6
same,survivor count,[5],0 of 6
Cc1cccc(C[As](=O)(O)O)c1,survivor count,"dose: 50.0 mg/kg/injection, schedule: Q04DX003 (ip), vehicle: Klucel (hydroxypropylcellulose) (HPC)",0 of 3
same,survivor count,"dose: 100.0 mg/kg/injection, schedule: Q04DX003 (ip), vehicle: Klucel (hydroxypropylcellulose) (HPC)",0 of 6
same,survivor count,[11],0 of 6
same,survivor count,[2],0 of 6
c1ccc2c(c1)CCN(C1=NCCO1)C2,survivor count,"dose: 75.0 mg/kg/injection, schedule: Q01DX001 (ip), vehicle: saline",2 of 6
same,survivor count,[6],0 of 6
same,survivor count,[7],0 of 6
O=NN(CCCl)C(=O)NCc1ccc(-c2ccc(CNC(=O)N(CCCl)N=O)cc2)cc1,T/C,"dose: 52.0 mg/kg/injection, schedule: Q01DX001 (ip), vehicle: other",138 % of control
same,T/C,"dose: 78.0 mg/kg/injection, schedule: Q01DX001 (ip), vehicle: other",134 % of control
same,T/C,"dose: 118.0 mg/kg/injection, schedule: Q01DX001 (ip), vehicle: other",145 % of control
same,T/C,"dose: 118.0 mg/kg/injection, schedule: Q01DX009 (ip), vehicle: carboxymethylcellulose (CMC)",131 % of control
same,T/C,"dose: 177.0 mg/kg/injection, schedule: Q01DX001 (ip), vehicle: carboxymethylcellulose (CMC)",128 % of control
same,T/C,"dose: 177.0 mg/kg/injection, schedule: Q01DX009 (ip), vehicle: carboxymethylcellulose (CMC)",134 % of control
same,T/C,"dose: 266.0 mg/kg/injection, schedule: Q01DX001 (ip), vehicle: carboxymethylcellulose (CMC)",142 % of control
same,T/C,"dose: 266.0 mg/kg/injection, schedule: Q01DX009 (ip), vehicle: carboxymethylcellulose (CMC)",139 % of control
same,T/C,[12],135 % of control
same,T/C,"dose: 600.0 mg/kg/injection, schedule: Q01DX001 (ip), vehicle: carboxymethylcellulose (CMC)",143 % of control
CC1(c2ccc(Cl)s2)C(=O)N(Cl)C(=O)N1Cl (configuration not stated),survivor count,[8],6 of 6
same,survivor count,[13],1 of 6
same,survivor count,[5],2 of 6
CCN(CC)CCCC(C)Nc1cc(/C=C/c2ccc(Cl)cc2)nc2ccc(N(C)C)cc12 (configuration not stated),survivor count,"dose: 25.0 mg/kg/injection, schedule: Q01DX009 (ip), vehicle: saline with Tween-80",4 of 6
same,survivor count,"dose: 50.0 mg/kg/injection, schedule: Q01DX009 (ip), vehicle: saline with Tween-80",0 of 6
same,survivor count,[8],0 of 6
same,survivor count,[13],0 of 6
same,survivor count,[3],0 of 6
OCC1OC(n2cc(Cl)c3cncnc32)C(O)C1O (configuration not stated),survivor count,"dose: 100.0 mg/kg/injection, schedule: Q01DX005 (ip), vehicle: saline",3 of 6
C=CS(=O)(=O)CCOc1ccc(Cl)cc1Cl,survivor count,[14],2 of 6
NC(=S)Nc1c(Cl)cc(Cl)cc1Cl,survivor count,[1],3 of 6
same,survivor count,[14],0 of 6
Nc1nc(Cl)c(C=O)c(Cl)n1,survivor count,"dose: 50.0 mg/kg/injection, schedule: Q01DX001 (ip), vehicle: carboxymethylcellulose (CMC)",2 of 4
same,survivor count,"dose: 100.0 mg/kg/injection, schedule: Q01DX001 (ip), vehicle: carboxymethylcellulose (CMC)",2 of 4
same,survivor count,"dose: 200.0 mg/kg/injection, schedule: Q01DX001 (ip), vehicle: carboxymethylcellulose (CMC)",1 of 4
same,survivor count,[12],0 of 4
N=C(N)SC1c2ccccc2-c2ccc(Br)cc21 (configuration not stated),survivor count,"dose: 300.0 mg/kg/injection, schedule: Q01DX001 (ip), vehicle: carboxymethylcellulose (CMC)",0 of 6
NC(=S)N/N=C1\CC(c2ccccc2)Oc2ccccc21 (configuration not stated),survivor count,"dose: 200.0 mg/kg/injection, schedule: Q01DX001 (ip), vehicle: saline",1 of 6
same,survivor count,"dose: 400.0 mg/kg/injection, schedule: Q01DX001 (ip), vehicle: saline",0 of 6
Cc1ccc(C(C)C)c(O)c1C(=O)O,survivor count,"dose: 400.0 mg/kg/injection, schedule: Q01DX001 (ip), vehicle: Klucel (hydroxypropylcellulose) (HPC)",0 of 6
